{"source": "paper doi:10.1101/268466", "binders": {"B1": {"name": "YN-TRM1 (TON1 RECRUITMENT MOTIF1 fused to the N-terminal half of YFP) (protein, UniProt Q9S823 1-905)", "chain": "MSAKLLYNLSDENPNLNKQFGCMNGIFQVFYRQHCPATPVTVSGGAEKSLPPGERRGSVGETNMESDKETERSSTKKKKSAAKEKHRVSFESSSRPSFSSSPRSSSFSSAEVSTTASQFDQPGENLIREQPNGGLMMPYDLKELVKGSINREIRTRGEEASFTQQQQPISARSSMLLLKESSLRSPCRSSNEWNEGRGAAMKFKESHRLSYDEREMRNNGFRVGSKLKETPRLSLDSRSNSFRSPRADAARSSCPEEPATMTHRRSSSSVVAKLMGLEVIADNSDTEQRRENRFCDSPRPMSRVEPTALQRSRSVDSIKRIPASAASKFPMEPAPWKQMKAGDSALTVYGEIQKRLTQLEFKKSGKDLRALKQILEAMEKTQQLIDESRDDGTLSTTTLMQRTHKPVSAATSPARNFKSSSIVVMKSAAPVSTSPLPQNVTLPNVKVGNSRQTRKVTSGKQNAMDLTPRPGLYKGQLDSTKSNSPKTVRSRQALAADAGSMTKSGRSQQHSVSPRTQPKKLGFEKQTRPTTPKSEPGKRQLGRQQTEVASPRRKQMIKPHSTLQQPDDRLSDARSDLRSLRSDSNISLGSNVDIEVTSRHRLERNCDFPEQHTPKQRSPDFGIKQDRPSLKPLKVTVEQPSPVSVLDAVFDEEDSPSPVRKISLSFKEEDALRSEESEWINKPTSFCRSVPFPQSNRGPMKPSSDHFECSPEEGADFKSGNHKYILEILLASGILRDLEYSMISFQLHQTRLPINPGLFFILEQNKASNVTLPDNKHRGRGFRQQQTNPTETIRRKLVFDTVNEILARKFTAEGCIKPRLIANPLKKLEKISKEEQLLQTLCSEIDRLQQNNSNCILEDDEEDIIWEDLQSQSMNLKEFEGETPGIVLDIERMIFRDLVNEVCFC"}}, "target": "YC-TON1 (TONNEAU1 fused to the C-terminal half of YFP)", "test": "split reporter", "note": "These are yes or no findings as the source states them, for the method shown. In cells and extracts the contact can be indirect. Binding calls can cover weak binding; strength is not graded here. Where a sequence is shown, tags or fusion partners need not be part of it."}
{"binder": "B1", "values": [{"measurement": "binding", "value": "binds"}]}
